We go through 16 molecules from patent US20220135701A1 (Genentech, published 2022).

Numbering of substitutions follows the chain as printed. These are yes or no findings as the source states them, for the method shown. Some results given as binding are weak or reduced against the parent protein; the word gives no strength.

The target in test [1] is T1, human MerTK (human, UniProt Q12866 26-499).
T1 construct: also called HuMER
T1 sequence: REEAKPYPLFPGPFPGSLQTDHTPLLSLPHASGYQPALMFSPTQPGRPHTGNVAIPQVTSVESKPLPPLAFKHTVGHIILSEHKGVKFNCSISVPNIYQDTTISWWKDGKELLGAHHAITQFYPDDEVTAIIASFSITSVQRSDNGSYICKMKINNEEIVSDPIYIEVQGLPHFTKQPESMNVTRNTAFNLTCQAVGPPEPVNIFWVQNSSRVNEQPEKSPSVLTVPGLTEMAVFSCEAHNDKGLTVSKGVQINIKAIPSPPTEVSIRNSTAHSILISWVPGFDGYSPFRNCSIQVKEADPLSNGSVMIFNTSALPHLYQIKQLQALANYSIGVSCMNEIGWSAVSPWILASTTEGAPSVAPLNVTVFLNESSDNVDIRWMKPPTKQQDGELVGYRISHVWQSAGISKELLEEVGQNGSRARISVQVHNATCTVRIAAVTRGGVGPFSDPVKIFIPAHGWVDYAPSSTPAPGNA
The test is described as follows: epitope binning and domain binding SPR.

Test [2] addresses T2, rat MerTK (rat, UniProt P57097 23-496, limits assumed).
T2 construct: Soluble analyte in SPR
T2 sequence (looked up): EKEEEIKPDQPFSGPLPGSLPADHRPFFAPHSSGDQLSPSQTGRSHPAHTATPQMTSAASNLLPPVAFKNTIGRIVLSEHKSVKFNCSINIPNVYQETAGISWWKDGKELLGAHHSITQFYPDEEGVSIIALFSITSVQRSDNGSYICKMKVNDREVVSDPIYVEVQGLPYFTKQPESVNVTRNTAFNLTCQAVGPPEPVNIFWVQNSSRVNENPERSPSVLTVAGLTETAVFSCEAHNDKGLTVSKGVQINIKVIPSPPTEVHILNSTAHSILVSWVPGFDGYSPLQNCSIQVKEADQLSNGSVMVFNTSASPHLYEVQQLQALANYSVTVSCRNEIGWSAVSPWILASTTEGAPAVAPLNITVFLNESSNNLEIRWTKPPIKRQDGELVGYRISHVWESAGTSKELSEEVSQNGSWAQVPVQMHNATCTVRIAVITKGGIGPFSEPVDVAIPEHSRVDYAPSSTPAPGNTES
The experiment in a line: SPR BIAcore T200.

Test [3] addresses cynomolgus monkey MerTK (cynomolgus monkey). The experiment in a line: SPR BIAcore T200.
Test [4] addresses T1, human MerTK. The experiment in a line: SPR BIAcore T200. A general note: In SPR one partner is held on a chip, and binding of the other changes the refractive index at the surface.
For test [5], the target named is T3, mouse MerTK (mouse, UniProt Q60805 23-496).
T3 construct: also called MuMER
T3 sequence (looked up): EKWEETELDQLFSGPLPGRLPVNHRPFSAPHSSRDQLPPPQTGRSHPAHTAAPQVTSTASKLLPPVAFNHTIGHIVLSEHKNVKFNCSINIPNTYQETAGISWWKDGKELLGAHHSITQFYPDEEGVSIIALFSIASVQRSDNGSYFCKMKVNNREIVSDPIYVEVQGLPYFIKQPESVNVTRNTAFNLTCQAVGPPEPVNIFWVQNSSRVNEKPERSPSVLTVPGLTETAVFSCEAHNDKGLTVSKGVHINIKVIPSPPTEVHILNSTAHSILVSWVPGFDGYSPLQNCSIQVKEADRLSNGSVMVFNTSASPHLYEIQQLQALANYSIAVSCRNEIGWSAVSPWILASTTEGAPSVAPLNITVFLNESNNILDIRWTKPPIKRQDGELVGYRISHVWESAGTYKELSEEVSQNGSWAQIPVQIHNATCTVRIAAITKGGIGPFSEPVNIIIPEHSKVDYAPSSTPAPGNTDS
The experiment in a line: SPR BIAcore T200.

B1: Rbt8F4 (antibody, V domains shown)
VH: QSVQESGGRLVTPGTPLTLTCTVSGFSLINYPMSWVRQAPGKGLEWIGVISSTGGTNYASWAKGRFTISKTSTTVDLKITSPTTEDTATYFCARVDFLVYLGGAYIIWGLDLWGQGTLVTVSS
VL: AAVLTQTPSPVSAAVGGTVTINCQSSPNIYSNYLSWFQQKPGQPPKILIYGASTLASGVPSRFKGSGSGTQFTLTISDVQCDDAATYYCAGGYSDSSEAYAFGGGTEVVVK
notes: Recombinant rabbit monoclonal antibody, Expi293, protein A purified
As for B1, in test [1], the binding result is reported as “binds”.

B2: h10C3.v1 (antibody, V domains shown)
VH: EQQLVESGGGLVQPGGSLRLSCAASGFSLSGYTMGWVRQAPGKGLEYIGVISSGGTTYYTNWAKGRFTISKDSSKNTVYLQMGSLRAEDMAVYFCARVAFTAYGGGGFPTLHRLDLWGQGTLVTVSS
VL: DQVLTQSPDSLAVSLGERATINCQSSESVYNNDYLAWYQQKPGQPPKLLIYSASTLASGVPDRFSGSGSGTDFTLTISSLQAEDVAVYYCAGGYLGNNVFGGGTKVEIK
notes: also called h10C3.V1 (Parent); 10C3 Humanized mAb V1
Turning to B2, the binding entry in test [2], in test [3], in test [4] and in test [5] was “binds” each time.

B3: h10C3.v14 (antibody, V domains shown)
VH: B2 VH with Q2V, S73N, V78L, F94Y
VL: B2 VL
notes: Humanized, human IgG1; also called 10C3 Humanized polished mAb
Take B3: the binding entry in test [2], in test [3], in test [4] and in test [5] was “binds” each time.

B4: Rbt12H4 (antibody, V domains shown)
VH: QSVEESGGRLVTPGTPLTVTCTVSGFSLSVYGMGWVRQAPGKGLEYIGFINNVGNTYYASWAKGRFTISKTSTTVDLKITSPTTEDTATYFCAKGGGGDWGYFNIWGPGTLVTVSL
VL: DVVMTQTPASVEAAVGGTVTIKCQASQSIGNALAWYQQKPGQRPKLLIYAASNLASGVPSRFAGSGSGTQFTLTISDLECADAATYYCQTYYAINRYGGAFGGGTEVVVK
notes: as for B1
As to B4, the binding entry in test [1] was “binds”.

B5: Rbt13B4 (antibody, V domains shown)
VH: QSVEESGGRLVTPGTPLTLTCTVSGFSLSSYAMGWVRQAPGKGLEWIGIINSYGNTYYANWAKGRFTISRTSTTVDLRMPSLTTEDTATYFCARDPGVSSNLWGPGTLVTVSS
VL: DVVMTQTPASVSEPVGGTVTIKCQASQNIYSGLAWYQQKPGQPPKLLIYGASKLASGVSSRFKGSGSGTEFTLTISDLECADAATYYCQATYYSSNSVAFGGGTEVVVK
notes: Recombinant rabbit monoclonal antibody, Expi293, protein A purified; also called Rb13B4
As to B5, the binding entry in test [4] and in test [1] was “binds” throughout.

B6: Rbt22C4 (antibody, V domains shown)
VH: QSVEESGGRLVTPGTPLTLTCTVSGFSLSTYSMSWVRQAPGKGLEWLGIVSVAIDPVYATWARGRFTISRTSTTVNLKITSPTTEDTATYFCVRVAFSTNGIPHRLDLWGQGTLVTVSS
VL: AQVLTQTASSVSAAVGGTVTISCQSSPSVYNHNWLSWYQQKPGQPPKLLIYEASKLASGVPSRFSGSGSGTQFTLTISDVQCDEAATYYCAGGFSSGSDSFAFGGGTEVVVT
notes: as for B1
Consider B6, for which the binding entry in test [1] is “binds”.

B7: Rbt18G7 (antibody, V domains shown)
VH: QSLEESGGRLVTPGTPLTLTCTVSGIDLSSYALGWVRQAPGKGLEYIGIISSTGTTYYATWAKGRFTISKTSSTTVDLKITGPTTEDTATYFCARGAYAGYVAFGPYYFHIWGPGTLVTISL
VL: DIVMTQTPASVEAAVGGTVTIKCQASQSISNFLAWYQQKPGQPPKVLIYAASHLASGVPSRFKGSGSGTQFTLTISDLECADAATYYCQSYFYSSTSIYNAFGGGTEVVVR
notes: as for B1
As for B7, the binding result in test [1] is recorded as “binds”.

B8: Rbt13D8 (antibody, V domains shown)
VH: QSLEESGGRLVTPGTPLTLTCTVSGFSFSSYSMGWVRQAPGKGPEYIGVISASGTTYYASWVNGRFTISKTSTTMDLKMTSPTAADTATYFCARAAFTAYNRGSCVIHRLDLWGQGTLVTVSS
VL: AQVLTQTASSVSAAVGGTVTINCQASQSVYDSKWLAWYQQKPGQPPKLLIYSASTLASGVPSRFKGSGSGTQFTLTISDLECDDAATYYCAGAYTDNIVFGGGTEVVVK
notes: as for B1
Turning to B8, the binding entry in test [1] is “binds”.

B9: h10F7.v1 (antibody, V domains shown)
VH: EQQLVESGGGLVQPGGSLRLSCAVSGFSLSGYAMSWVRQAPGKGLEYIGVISSSGSSYYPSWAKGRFTISKDSSKNTVYLQMGSLRAEDMAVYFCARVQFYVGYAVYGYGIIDRLDLWGQGTLVTVSS
VL: DAVLTQSPDSLAVSLGERATINCQSSKSVYNNNWLSWYQQKPGQPPKLLIYRASTLESGVPDRFSGSGSGTDFTLTISSLQAEDVAVYFCAGGYSSSSSANAFGGGTKVEIK
notes: also called h10F7.V1 (Parent); 10F7 Humanized mAb V1
Take B9: the binding entry in test [2], in test [3], in test [4] and in test [5] was “binds” in each case.

B10: h10F7.v16 (antibody, V domains shown)
VH: B9 VH with Q2V, S73N, V78L, F94Y
VL: B9 VL with A2I
notes: Humanized, human IgG1; also called 10F7 Fully Humanized; 10F7 Humanized polished mAb
Take B10: the binding entry in test [2], in test [3], in test [4] and in test [5] was “binds” throughout.

B11: Rbt10F7 (antibody, V domains shown)
VH: QSVEESGGRLVTPGTPLTLTCTVSGFSLSGYAMSWVRQAPGKGLEYIGVISSSGSSYYPSWAKGRFTISKTSTTVDLQITSPTTEDTATYFCARVQFYVGYAVYGYGIIDRLDLWGQGTLVTVSS
VL: AAVLTQTPSPVSATMGGTVSISCQSSKSVYNNNWLSWYQQKPGQPPKLLIYRASTLESGVPSRFKGSGSGTQFTLTISDVHCDDAATYFCAGGYSSSSSANAFGGGTEVVVK
notes: as for B1
Take B11: the binding entry in test [1] is listed as “binds”.

B12: Rbt10C3 (antibody, V domains shown)
VH: QSLEESGGRLVTPGTPLTLTCTASGFSLSGYTMGWVRQAPGKGLEYIGVISSGGTTYYTNWAKGRFTISKTSTTVDLKITSPTTEDTATYFCARVAFTAYGGGGFPTLHRLDLWGQGTLVTVSS
VL: AQVLIQTASSVSAAVGGTVTISCQSSESVYNNDYLAWYQQKPGQPPKLLIYSASTLASGVPSRFKGSGSGTQFTLTISDLECDDAATYYCAGGYLGNNVFGGGTEVVVK
notes: as for B1
Take B12: in test [1], the binding entry is on record as “binds”.

B13: Rbt11G11 (antibody, V domains shown)
VH: QELVESGGGLVQAGESLKLSCKASGIDFSSYGISWVRQAPGKGLEWIAYIYPGFGITNYAHSVKGRFTISSDNAQNTVFLQMPSLTASDTATYFCARDLDYTGGVVGYAYVTYYFTLWGPGTLVTVSS
VL: DPVLTQTPSSVEAAVGGTVTIKCQASESISSRLAWYQQKPGQPPKLLIYSASTLASGVSSRFKGSGSGTEFTLTISDLECADAATYYCQTYYGGSTTGWYVFGGGTEVVVK
notes: as for B1
Consider B13, for which the binding entry in test [1] is “binds”.

B14: h13B4.v1 (antibody, V domains shown)
VH: EQQLVESGEGLVQPGGSLRLSCAVSGFSLSSYAMGWVRQAPGKGLEWIGIINSYGNTYYANWAKGRFTISRDSSKNTVYLQMGSLRAEDMAVYFCARDPGVSSNLWGPGTLVTVSS
VL: DVQMTQSPSTLSASVGDRVTITCQASQNIYSGLAWYQQKPGKPPKLLIYGASKLASGVPSRFSGSGSGTEFTLTISSLQPDDFATYYCQATYYSSNSVAFGGGTKVEIK
notes: also called h13B4.V1 (Parent); 13B4 Humanized mAb V1
As to B14, the binding result in test [4] is listed as “binds”.

B15: Rbt9E3.FN (antibody, V domains shown)
VH: QSVEESGGRLVTPGTPLTLTCTVSGFSLSSNAMSWVRQAPGKGLEWIGIISSSGSTYSASWAKGRFTISKTSTTMDLKITSPTTEDTATYFCARVGFFVGYGAYDYGIIHRLDLWGQGTLVTVSS
VL: AAVLTQTPSPVSAAVGGTVSISCQSSKSIYNNNWLSWYQQKPGQPPKLLIYDASDLASGVPSRFEGSGSGTEFTLTISDLECDDAATYYCAGGYSGDSDYAFGGGTEVVVK
notes: as for B1
B15: in test [1], the binding entry was “binds”.

B16: Rbt14C9 (antibody, V domains shown)
VH: QSVEESGGRLVTPGTPLTLTCTVSGIDLSANTMNWVRQAPGKGLEWIGIFTATGSTYYATWVNGRFTISKTSTTVDLKITSPTTEDTATYFCARSGSGSSSGAFNIWGPGTLVTVSL
VL: DPVLTQTPASVSEPVGGTVTIKCQASQSISSSLAWYQQKPGQPPKLLIYAASILASEISSRFKGSRSGTEFTLTISDLECADAATYYCQCTSYGSLFLGPFGGGTEVVVK
notes: as for B1
For B16, the binding entry in test [5] is recorded as “binds”.
